Some of the results follow.
Compound: Cc1cc(ccc1-c1ccccc1)C(=O)N1CCCN(CC1)C(=O)CCl [compound 10]
Assay: probe-labelled cysteine peptide fold change vs DMSO (competition) (log2 fold change); higher = less target engagement (more negative = stronger competition)
Conditions: 10 µM; THP-1; incubation time: 4 h
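Note: competitive profiling in live THP-1 cells: cysteine peptides tagged with an iodoacetamide desthiobiotin (IA-DTB) probe, intensity after compound treatment relative to DMSO-treated cells.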

Amino acid sequences for entries named in this document (tags omitted). A change or cut given only in a name is not applied to a line headed by its entry.
UniProt P23142: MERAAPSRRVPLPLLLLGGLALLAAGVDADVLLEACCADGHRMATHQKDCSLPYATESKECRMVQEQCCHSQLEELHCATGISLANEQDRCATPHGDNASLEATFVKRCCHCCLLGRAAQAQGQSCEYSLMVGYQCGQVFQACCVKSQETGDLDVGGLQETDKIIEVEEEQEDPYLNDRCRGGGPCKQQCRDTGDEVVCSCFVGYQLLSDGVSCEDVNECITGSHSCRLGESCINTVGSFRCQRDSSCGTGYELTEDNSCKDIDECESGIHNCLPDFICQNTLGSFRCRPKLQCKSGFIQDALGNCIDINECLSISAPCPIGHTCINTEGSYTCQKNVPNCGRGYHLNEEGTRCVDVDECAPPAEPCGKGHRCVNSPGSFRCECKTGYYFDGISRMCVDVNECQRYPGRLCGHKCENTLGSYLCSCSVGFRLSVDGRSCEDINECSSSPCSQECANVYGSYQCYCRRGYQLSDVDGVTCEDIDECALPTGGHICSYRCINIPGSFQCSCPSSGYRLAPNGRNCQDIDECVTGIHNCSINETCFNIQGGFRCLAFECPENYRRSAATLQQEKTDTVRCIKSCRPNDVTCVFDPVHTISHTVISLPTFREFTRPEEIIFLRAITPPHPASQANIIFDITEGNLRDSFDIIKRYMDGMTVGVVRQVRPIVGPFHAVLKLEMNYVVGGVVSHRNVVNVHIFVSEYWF
UniProt P10109: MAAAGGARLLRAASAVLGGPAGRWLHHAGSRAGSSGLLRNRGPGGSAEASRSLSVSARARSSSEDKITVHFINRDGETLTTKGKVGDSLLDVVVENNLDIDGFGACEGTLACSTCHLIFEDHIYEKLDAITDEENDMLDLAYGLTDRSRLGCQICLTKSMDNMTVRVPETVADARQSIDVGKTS
UniProt Q9UK61: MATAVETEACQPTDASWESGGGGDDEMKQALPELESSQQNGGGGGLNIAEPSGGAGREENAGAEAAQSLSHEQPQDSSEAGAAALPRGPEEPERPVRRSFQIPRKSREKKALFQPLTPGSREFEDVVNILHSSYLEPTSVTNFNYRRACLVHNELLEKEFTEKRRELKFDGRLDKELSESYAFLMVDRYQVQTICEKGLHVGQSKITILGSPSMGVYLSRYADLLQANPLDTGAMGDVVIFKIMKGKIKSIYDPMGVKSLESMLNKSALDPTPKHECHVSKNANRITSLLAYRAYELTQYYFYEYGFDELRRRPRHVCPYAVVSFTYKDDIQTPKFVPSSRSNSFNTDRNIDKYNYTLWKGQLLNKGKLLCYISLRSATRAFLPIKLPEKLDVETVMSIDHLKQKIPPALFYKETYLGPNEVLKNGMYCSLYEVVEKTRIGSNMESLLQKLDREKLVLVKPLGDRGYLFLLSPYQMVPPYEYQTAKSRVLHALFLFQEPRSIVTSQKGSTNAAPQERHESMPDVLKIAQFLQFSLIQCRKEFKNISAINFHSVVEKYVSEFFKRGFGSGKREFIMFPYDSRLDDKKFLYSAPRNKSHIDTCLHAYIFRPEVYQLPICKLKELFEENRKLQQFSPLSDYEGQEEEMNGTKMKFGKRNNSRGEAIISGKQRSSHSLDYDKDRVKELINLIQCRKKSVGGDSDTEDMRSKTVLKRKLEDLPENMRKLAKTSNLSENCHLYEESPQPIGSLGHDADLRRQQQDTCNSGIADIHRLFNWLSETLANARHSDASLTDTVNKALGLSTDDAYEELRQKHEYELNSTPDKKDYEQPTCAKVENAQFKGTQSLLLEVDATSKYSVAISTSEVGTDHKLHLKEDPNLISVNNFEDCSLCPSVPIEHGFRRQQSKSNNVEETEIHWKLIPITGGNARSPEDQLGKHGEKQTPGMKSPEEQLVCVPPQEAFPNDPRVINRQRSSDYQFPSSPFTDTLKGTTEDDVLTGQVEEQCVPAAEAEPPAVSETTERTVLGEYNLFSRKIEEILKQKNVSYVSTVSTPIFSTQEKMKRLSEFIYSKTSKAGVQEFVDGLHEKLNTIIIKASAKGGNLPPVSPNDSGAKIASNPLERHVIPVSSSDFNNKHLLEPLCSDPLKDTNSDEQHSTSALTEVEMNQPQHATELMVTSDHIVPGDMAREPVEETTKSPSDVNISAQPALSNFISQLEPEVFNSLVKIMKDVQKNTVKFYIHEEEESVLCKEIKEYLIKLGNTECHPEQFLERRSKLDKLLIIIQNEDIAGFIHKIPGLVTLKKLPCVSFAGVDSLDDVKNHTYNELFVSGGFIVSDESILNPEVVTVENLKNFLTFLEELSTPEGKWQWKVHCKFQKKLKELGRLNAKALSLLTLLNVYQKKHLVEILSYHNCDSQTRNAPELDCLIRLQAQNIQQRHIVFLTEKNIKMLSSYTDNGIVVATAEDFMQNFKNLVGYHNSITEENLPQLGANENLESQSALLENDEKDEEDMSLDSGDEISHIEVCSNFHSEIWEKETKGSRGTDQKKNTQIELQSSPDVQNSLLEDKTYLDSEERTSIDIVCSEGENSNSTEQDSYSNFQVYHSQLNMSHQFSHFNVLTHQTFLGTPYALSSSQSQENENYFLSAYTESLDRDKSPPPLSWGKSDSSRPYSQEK
UniProt Q9UK99: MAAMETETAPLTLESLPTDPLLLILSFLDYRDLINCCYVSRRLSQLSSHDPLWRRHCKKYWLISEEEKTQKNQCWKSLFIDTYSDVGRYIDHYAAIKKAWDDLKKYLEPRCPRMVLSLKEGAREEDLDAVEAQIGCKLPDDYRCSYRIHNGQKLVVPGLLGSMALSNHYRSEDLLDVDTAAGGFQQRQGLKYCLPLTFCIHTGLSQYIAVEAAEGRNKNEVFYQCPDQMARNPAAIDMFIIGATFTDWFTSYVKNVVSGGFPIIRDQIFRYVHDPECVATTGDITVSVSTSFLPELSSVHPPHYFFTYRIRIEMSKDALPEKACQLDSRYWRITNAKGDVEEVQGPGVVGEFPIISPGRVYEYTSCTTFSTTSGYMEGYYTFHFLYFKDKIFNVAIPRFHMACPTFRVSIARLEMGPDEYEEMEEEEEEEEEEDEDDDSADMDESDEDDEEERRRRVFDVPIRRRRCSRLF
UniProt Q17RN3: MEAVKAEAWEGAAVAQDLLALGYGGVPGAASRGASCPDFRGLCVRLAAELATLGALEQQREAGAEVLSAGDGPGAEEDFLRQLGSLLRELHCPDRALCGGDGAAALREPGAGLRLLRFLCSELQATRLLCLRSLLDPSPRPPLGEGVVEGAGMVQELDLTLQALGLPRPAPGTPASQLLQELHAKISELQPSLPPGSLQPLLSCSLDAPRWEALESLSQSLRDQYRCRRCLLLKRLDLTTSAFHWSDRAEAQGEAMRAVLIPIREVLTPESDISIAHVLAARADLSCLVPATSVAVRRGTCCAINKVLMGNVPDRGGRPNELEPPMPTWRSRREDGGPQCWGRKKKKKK
UniProt Q8N531: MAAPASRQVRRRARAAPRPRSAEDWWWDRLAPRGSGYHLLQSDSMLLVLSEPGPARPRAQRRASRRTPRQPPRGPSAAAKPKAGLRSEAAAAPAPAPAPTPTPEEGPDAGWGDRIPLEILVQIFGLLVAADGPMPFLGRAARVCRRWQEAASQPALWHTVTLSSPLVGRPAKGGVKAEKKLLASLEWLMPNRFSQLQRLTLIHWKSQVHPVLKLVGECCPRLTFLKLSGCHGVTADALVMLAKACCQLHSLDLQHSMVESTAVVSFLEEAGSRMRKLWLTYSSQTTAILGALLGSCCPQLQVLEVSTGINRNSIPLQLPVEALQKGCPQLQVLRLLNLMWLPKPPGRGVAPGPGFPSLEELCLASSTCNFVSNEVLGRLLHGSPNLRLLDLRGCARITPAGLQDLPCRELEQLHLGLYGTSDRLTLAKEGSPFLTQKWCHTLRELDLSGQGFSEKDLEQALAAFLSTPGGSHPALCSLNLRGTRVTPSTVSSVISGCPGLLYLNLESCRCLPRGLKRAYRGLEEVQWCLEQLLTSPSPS
UniProt Q96ME1: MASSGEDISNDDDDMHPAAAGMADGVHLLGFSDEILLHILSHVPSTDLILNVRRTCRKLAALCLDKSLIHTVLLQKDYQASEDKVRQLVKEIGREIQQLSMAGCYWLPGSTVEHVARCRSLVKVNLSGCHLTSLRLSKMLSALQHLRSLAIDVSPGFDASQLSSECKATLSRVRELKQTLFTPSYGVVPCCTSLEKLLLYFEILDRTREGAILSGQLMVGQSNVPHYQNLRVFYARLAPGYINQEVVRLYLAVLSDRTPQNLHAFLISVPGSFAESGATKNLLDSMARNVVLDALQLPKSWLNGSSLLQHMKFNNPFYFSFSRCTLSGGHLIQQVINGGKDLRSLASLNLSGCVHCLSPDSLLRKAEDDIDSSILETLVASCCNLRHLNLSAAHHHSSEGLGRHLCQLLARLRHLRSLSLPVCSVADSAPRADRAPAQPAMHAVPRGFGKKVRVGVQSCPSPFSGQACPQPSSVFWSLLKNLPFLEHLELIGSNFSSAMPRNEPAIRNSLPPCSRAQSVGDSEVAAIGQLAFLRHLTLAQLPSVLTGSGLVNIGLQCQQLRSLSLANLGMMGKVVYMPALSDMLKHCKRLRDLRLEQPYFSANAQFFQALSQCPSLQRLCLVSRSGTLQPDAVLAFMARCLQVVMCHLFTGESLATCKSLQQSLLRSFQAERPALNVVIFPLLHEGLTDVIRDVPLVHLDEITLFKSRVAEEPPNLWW
UniProt P22087: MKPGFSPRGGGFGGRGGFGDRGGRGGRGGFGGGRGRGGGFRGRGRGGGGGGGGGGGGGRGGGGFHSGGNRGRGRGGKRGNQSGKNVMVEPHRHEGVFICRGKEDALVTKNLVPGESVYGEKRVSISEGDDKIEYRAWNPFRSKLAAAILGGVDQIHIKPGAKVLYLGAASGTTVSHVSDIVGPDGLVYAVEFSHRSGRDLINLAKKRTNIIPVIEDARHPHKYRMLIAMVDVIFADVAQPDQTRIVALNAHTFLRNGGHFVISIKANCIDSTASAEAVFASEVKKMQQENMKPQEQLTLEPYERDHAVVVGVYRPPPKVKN
UniProt P16591: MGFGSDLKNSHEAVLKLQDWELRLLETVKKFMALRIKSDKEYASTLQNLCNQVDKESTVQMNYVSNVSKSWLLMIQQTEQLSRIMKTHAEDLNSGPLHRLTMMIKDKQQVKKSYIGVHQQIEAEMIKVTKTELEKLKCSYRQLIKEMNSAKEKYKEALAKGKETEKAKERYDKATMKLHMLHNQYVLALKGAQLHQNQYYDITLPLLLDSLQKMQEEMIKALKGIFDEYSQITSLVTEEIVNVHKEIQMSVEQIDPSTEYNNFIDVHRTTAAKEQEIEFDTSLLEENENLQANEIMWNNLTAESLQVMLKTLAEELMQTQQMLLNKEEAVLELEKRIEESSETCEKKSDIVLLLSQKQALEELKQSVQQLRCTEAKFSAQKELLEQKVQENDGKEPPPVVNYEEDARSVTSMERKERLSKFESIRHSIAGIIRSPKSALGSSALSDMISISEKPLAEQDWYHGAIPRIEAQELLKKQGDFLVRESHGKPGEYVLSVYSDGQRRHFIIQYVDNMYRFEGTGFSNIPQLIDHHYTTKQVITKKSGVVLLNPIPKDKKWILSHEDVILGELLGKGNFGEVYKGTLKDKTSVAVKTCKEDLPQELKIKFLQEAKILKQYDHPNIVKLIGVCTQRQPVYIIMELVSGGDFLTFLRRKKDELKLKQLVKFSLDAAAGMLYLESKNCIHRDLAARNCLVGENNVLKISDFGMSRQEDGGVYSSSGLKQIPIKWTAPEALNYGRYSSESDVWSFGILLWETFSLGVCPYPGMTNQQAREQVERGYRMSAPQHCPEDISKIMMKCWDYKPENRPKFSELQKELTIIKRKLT
UniProt Q96IG2: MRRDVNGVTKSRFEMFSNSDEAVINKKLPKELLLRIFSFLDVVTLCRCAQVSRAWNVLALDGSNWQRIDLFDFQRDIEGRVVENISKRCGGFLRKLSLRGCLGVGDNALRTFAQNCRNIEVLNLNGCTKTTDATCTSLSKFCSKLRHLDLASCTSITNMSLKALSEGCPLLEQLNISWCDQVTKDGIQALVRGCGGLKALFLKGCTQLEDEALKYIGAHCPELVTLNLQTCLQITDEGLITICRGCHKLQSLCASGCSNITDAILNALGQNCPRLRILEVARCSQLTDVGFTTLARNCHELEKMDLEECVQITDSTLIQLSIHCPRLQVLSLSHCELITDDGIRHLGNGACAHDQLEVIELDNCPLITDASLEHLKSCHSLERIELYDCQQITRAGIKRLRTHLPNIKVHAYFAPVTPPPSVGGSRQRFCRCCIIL
UniProt P55899: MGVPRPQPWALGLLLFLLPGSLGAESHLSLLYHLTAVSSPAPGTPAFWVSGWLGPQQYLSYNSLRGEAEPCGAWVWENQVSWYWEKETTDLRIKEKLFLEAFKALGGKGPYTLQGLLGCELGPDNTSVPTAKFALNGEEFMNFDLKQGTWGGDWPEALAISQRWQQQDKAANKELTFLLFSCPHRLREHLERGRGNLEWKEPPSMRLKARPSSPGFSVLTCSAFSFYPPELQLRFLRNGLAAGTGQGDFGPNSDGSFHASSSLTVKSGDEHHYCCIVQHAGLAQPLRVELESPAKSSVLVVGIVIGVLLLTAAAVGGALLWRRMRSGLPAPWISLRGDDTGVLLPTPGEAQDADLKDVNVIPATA

In order of rising “probe-labelled cysteine peptide fold change” value:
1. FBLN1_P23142_556_CLAFECPENYRR (UniProt P23142)  -0.358
2. FDX1_P10109_152+155_LGCQICLTK (UniProt P10109)  -0.319
3. FAM208A_Q9UK61_830_DYEQPTCAK (UniProt Q9UK61)  -0.312
4. FBXO3_Q9UK99_136_EGAREEDLDAVEAQIGCK (UniProt Q9UK99)  -0.311
5. FASN_P49327_1558_HAQPTCPGAQLCTVYYASLNFR (UniProt P49327)  -0.309
6. FASN_P49327_2202_ADEASELACPTPK (UniProt P49327)  -0.288
7. FAM208A_Q9UK61_617_SHIDTCLHAYIFRPEVYQLPICK (UniProt Q9UK61)  -0.271
8. FAM98C_Q17RN3_287_ADLSCLVPATSVAVR (UniProt Q17RN3)  -0.194
9. FBXL6_Q8N531_407_ITPAGLQDLPCR (UniProt Q8N531)  -0.174
10. FDX1_P10109_155_LGCQICLTK (UniProt P10109)  -0.171
11. FBXL18_Q96ME1_383_KAEDDIDSSILETLVASCCNLR (UniProt Q96ME1)  -0.142
12. FECH_P22830_360_ECGVENIR (UniProt P22830)  -0.132
13. FASN_P49327_779_RGLKPSCTIIPLMK (UniProt P49327)  -0.131
14. FBL_P22087_99_HEGVFICR (UniProt P22087)  -0.125
15. FCF1_Q9Y324_105_CIPCITDCVMAEIEK (UniProt Q9Y324)  -0.0921
16. FER_P16591_785_MSAPQHCPEDISK (UniProt P16591)  -0.0781
17. FASN_P49327_1564_HAQPTCPGAQLCTVYYASLNFR (UniProt P49327)  -0.0736
18. FEM1A_Q9BSK4_190_GNTALHDCAESGSLEILQLLLGCK (UniProt Q9BSK4)  -0.0407
19. FANCD2_Q9BXW9_1342_LLHHLCGHSK (UniProt Q9BXW9)  -0.0383
20. FBXL20_Q96IG2_272_LQSLCASGCSNITDAILNALGQNCPR (UniProt Q96IG2)  -0.0328
21. FCGRT_P55899_221_ARPSSPGFSVLTCSAFSFYPPELQLR (UniProt P55899)  -0.0251
22. FAM136A_Q96C01_114_CVDDHMHLIPTMTK (UniProt Q96C01)  -0.00834
23. FBXL17_Q9UF56_342_CLSASLVCK (UniProt Q9UF56)  0.00792
24. FARP2_O94887_155_LTCADTTAALLTSHLLQSEIGDYDETLDREHLK (UniProt O94887)  0.00853
25. FES_P07332_626_LIGVCTQK (UniProt P07332)  0.0158
26. FASN_P49327_1127_FCFTPHTEEGCLSER (UniProt P49327)  0.025
27. FBXL12_Q9NXK8_155_QQDPTVLPLLECIVLDR (UniProt Q9NXK8)  0.0367
28. FDPS_P14324_333_CSWLVVQCLQR (UniProt P14324)  0.0389
29. FCHSD2_O94868_260_TELETCQAVQNTFQFLLENSSK (UniProt O94868)  0.0999
30. FBXO30_Q8TB52_570_RFCPSIQGAK (UniProt Q8TB52)  0.108
31. FASN_P49327_2292_AAPLDSIHSLAAYYIDCIR (UniProt P49327)  0.162
32. FGGY_Q96C11_280_GHGLICEGQPVTSR (UniProt Q96C11)  0.187
33. FBXW11_Q9UKB1_100_MCHYQHGHINSYLK (UniProt Q9UKB1)  0.234
34. FBXO4_Q9UKT5_283_VCEVVDGFIYVANAEAHK (UniProt Q9UKT5)  0.241
35. FBXL12_Q9NXK8_155_QQDPTVLPLLECIVLDRVPAFR (UniProt Q9NXK8)  0.484

Same assay, conditions: 50 µM; THP-1; incubation time: 4 h

In order of falling “probe-labelled cysteine peptide fold change” value:
1. FBXL12_Q9NXK8_155_QQDPTVLPLLECIVLDRVPAFR (UniProt Q9NXK8)  0.391
2. FBXO4_Q9UKT5_283_VCEVVDGFIYVANAEAHK (UniProt Q9UKT5)  0.367
3. FBXL12_Q9NXK8_155_QQDPTVLPLLECIVLDR (UniProt Q9NXK8)  0.365
4. FES_P07332_626_LIGVCTQK (UniProt P07332)  0.294
5. FCHSD2_O94868_260_TELETCQAVQNTFQFLLENSSK (UniProt O94868)  0.276
6. FASN_P49327_2292_AAPLDSIHSLAAYYIDCIR (UniProt P49327)  0.115
7. FAM98C_Q17RN3_287_ADLSCLVPATSVAVR (UniProt Q17RN3)  0.101
8. FBL_P22087_99_HEGVFICR (UniProt P22087)  0.0609
9. FECH_P22830_360_ECGVENIR (UniProt P22830)  0.0461
10. FAM136A_Q96C01_114_CVDDHMHLIPTMTK (UniProt Q96C01)  0.0158
11. FASN_P49327_1127_FCFTPHTEEGCLSER (UniProt P49327)  -0.0872
12. FGGY_Q96C11_280_GHGLICEGQPVTSR (UniProt Q96C11)  -0.101
13. FASN_P49327_2202_ADEASELACPTPK (UniProt P49327)  -0.114
14. FBXW11_Q9UKB1_100_MCHYQHGHINSYLK (UniProt Q9UKB1)  -0.129
15. FCGRT_P55899_221_ARPSSPGFSVLTCSAFSFYPPELQLR (UniProt P55899)  -0.13
16. FCF1_Q9Y324_105_CIPCITDCVMAEIEK (UniProt Q9Y324)  -0.133
17. FBXO30_Q8TB52_570_RFCPSIQGAK (UniProt Q8TB52)  -0.153
18. FBXL17_Q9UF56_342_CLSASLVCK (UniProt Q9UF56)  -0.194
19. FER_P16591_785_MSAPQHCPEDISK (UniProt P16591)  -0.196
20. FASN_P49327_1564_HAQPTCPGAQLCTVYYASLNFR (UniProt P49327)  -0.205
21. FBXL20_Q96IG2_272_LQSLCASGCSNITDAILNALGQNCPR (UniProt Q96IG2)  -0.238
22. FDPS_P14324_333_CSWLVVQCLQR (UniProt P14324)  -0.254
23. FBXL18_Q96ME1_383_KAEDDIDSSILETLVASCCNLR (UniProt Q96ME1)  -0.261
24. FANCD2_Q9BXW9_1342_LLHHLCGHSK (UniProt Q9BXW9)  -0.261
25. FARP2_O94887_155_LTCADTTAALLTSHLLQSEIGDYDETLDREHLK (UniProt O94887)  -0.316
26. FBLN1_P23142_556_CLAFECPENYRR (UniProt P23142)  -0.339
27. FASN_P49327_1558_HAQPTCPGAQLCTVYYASLNFR (UniProt P49327)  -0.347
28. FAM208A_Q9UK61_617_SHIDTCLHAYIFRPEVYQLPICK (UniProt Q9UK61)  -0.348
29. FBXL6_Q8N531_407_ITPAGLQDLPCR (UniProt Q8N531)  -0.377
30. FAM208A_Q9UK61_830_DYEQPTCAK (UniProt Q9UK61)  -0.475
31. FASN_P49327_779_RGLKPSCTIIPLMK (UniProt P49327)  -0.499
32. FBXO3_Q9UK99_136_EGAREEDLDAVEAQIGCK (UniProt Q9UK99)  -0.547
33. FDX1_P10109_155_LGCQICLTK (UniProt P10109)  -0.586
34. FEM1A_Q9BSK4_190_GNTALHDCAESGSLEILQLLLGCK (UniProt Q9BSK4)  -0.717
35. FDX1_P10109_152+155_LGCQICLTK (UniProt P10109)  -0.896

From the supplement of paper PMC12067093, “Discovery and optimisation of a covalent ligand for TRIM25 and its application to targeted protein ubiquitination” (Chemical Science, 2025)
